Test results reported in paper PMC12268348.
These are yes or no findings as the source states them, for the method shown. Binding seen in cells or lysates may run through a third protein. Binding can be weak; no strength is given. Blank lines part the entries; values can stand above or below the molecule they belong to.

Tests used:
[1] = target: T1, PPARγ coactivator PGC-1α (rat (endogenous in primary FLSs of SD rats)) (UniProt Q9QYK2); assay: co-IP; endogenous proteins in lysates of rat primary FLSs (OE/KD PPARγ-treated); IP/Co-IP lysis buffer; antibody with Protein A/G magnetic beads, 4 °C overnight; washed thrice with lysis buffer; Western blot; IgG control
T1 sequence: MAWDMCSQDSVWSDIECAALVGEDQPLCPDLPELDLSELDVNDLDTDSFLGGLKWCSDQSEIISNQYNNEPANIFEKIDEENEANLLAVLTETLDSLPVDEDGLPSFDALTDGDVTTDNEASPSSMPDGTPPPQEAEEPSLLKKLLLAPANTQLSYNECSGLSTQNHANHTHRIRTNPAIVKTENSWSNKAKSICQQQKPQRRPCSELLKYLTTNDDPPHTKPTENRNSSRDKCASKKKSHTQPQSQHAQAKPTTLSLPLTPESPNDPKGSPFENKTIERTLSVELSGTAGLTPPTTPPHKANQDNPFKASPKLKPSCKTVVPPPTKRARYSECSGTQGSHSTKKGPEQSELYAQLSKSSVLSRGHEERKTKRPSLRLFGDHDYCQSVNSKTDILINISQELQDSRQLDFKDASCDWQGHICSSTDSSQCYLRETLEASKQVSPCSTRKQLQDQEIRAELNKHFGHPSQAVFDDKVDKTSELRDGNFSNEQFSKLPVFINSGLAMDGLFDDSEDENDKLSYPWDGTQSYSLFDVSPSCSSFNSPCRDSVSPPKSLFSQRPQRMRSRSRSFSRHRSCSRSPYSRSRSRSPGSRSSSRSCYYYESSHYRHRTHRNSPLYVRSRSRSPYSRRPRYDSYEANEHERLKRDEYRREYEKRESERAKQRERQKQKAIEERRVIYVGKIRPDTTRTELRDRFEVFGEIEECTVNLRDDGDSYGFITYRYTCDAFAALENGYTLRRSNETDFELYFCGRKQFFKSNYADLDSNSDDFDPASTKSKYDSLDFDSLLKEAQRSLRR

[2] = target: T2, Annexin A1 (ANXA1) in chondrocytes (rat (in primary chondrocytes of SD rats)) (UniProt P07150); assay: co-IP; lysates of rat primary chondrocytes; IP with anti-ANXA1 and anti-ERK antibodies, Protein A/G magnetic beads, 4 °C overnight; Western blot
T2 sequence: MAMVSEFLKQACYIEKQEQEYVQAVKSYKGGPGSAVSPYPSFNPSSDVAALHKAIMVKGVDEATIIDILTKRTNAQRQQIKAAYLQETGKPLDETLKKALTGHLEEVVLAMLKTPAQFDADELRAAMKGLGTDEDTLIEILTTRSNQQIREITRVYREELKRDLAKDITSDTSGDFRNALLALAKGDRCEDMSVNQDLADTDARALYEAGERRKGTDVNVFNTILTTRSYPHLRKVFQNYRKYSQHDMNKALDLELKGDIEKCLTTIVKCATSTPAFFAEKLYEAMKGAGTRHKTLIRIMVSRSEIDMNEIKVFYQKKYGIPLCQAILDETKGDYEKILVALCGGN

[3] = target: STAM1 (ESCRT-0 subunit), signal-transducing adaptor molecule 1 (rat (endogenous in primary FLSs of SD rats)); assay: co-IP; endogenous proteins in lysates of rat primary FLSs (OE/KD PPARγ-treated); IP/Co-IP lysis buffer; antibody with Protein A/G magnetic beads, 4 °C overnight; washed thrice with lysis buffer; Western blot; IgG control

binding [1]: binds
Molecule: STAM1 (ESCRT-0 subunit), signal-transducing adaptor molecule 1

binding [2]: binds
Molecule: extracellular signal-regulated kinase (ERK) (enzyme)

binding [3]: binds
B1: PPARγ coactivator PGC-1α (protein, UniProt Q9QYK2 1-796)
chain: T1 sequence
